Experimental data taken from US20250051443A1 (NATIONAL RESEARCH COUNCIL OF CANADA, published 2025).
Where a chain is given by its changes, count along the chain named. These are yes or no findings as the source states them, for the method shown. Some entries that bind do so weakly or less than the wild type.

Sequences of proteins named here, by UniProt entry; tags and fusion partners are left off. A change or cut given only in a name is not applied to a line headed by its entry.
UniProt P07766: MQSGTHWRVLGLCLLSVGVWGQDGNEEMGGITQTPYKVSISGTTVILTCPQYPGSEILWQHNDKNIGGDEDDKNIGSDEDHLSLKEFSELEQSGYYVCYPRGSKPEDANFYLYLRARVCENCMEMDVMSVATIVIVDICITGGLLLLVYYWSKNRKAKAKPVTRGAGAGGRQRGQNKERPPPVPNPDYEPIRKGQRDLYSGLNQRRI
UniProt Q95LI5: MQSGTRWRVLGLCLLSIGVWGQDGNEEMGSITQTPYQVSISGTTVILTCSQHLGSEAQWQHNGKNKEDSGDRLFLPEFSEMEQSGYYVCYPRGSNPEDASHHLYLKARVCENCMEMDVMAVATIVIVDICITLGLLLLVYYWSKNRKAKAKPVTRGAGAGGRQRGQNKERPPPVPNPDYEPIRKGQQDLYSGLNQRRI

B1: F282-2D5 (antibody, V domains shown)
VH: QVQLQQPGTELVKPGASVKLSCKASGYTFTSYWMHWVKQRPGQGLEWIGNINPSNGGTNYNENFKTKATLTVDKSSSTAYMQLSSLTSEDSAVYYCARDRSGQYYFDYWGQGTTLTVSS
VL: DIVMSQSPSSLAVSAGEKVTMSCKSSQSLLNSRTRKNYLAWYQQKPGQSPKLLIYWASTRESGVPDRFTGSGSGTDFTLTISSVQAEDLAVYYCIQSYHLRTFGGGTILEIK
notes: also called F282-2D5-2
B2: F332-1E2 (antibody, mouse IgG2a, V domains shown)
VH: QVQLQQPGAELGKPGTSVKLSCKASGYTFTSYWIHWVKQRPGQGLEWVGNINPNSGSINYNEKFKNKATLTVDKSSSTAYMQLSTLTSEDFAVYYCTRDTSGQYYFDYWGQGTTLTVSS
VL: B1 VL with K18R, I108K
notes: Sister clone 8C5 shares the same entries; also called F332-1E2-2; F332-1E2 (8C5)
B3: F332-12F6 (antibody, mouse IgG2a, V domains shown)
VH: B2 VH with V48I, I58T, N66S, F91S, T100I
VL: B1 VL with N37S, H99N, I108K
notes: also called F332-12F6-2
B4: F332-7C5 (antibody, mouse IgG2a, V domains shown)
VH: QVQLQQPGAELGKPGTSVKLSCKASGYTFTSYWMHWVKQRPGQGLEWIGNINPSSGITNYNERFKNKATLTVDKSSTTAYMQLSILTSEDSAVYYCSRDISGQYYFNFWGQGTTLTVSS
VL: B1 VL with S71T, I95K, H99N, I108K
notes: also called F332-7C5-2; F332-7C5 (5E12, 10A8)
B5: F332-7E3 (antibody, mouse IgG2a, V domains shown)
VH: B2 VH with V48I, N66S
VL: B1 VL with I95K, I108K
notes: also called F332-7E3-2
B6: F332-1C9 (antibody, mouse IgG2a, V domains shown)
VH: B2 VH with K19N, I34M, E46D, V48I, S57T, I58T, N66S, F91S, T100I, T114S
VL: B1 VL with T80I, I95K, H99S, I108K
notes: Sister clones 1A10, 5H8, 8B11 share the same entries; also called F332-1C9-2; F332-1C9 (1A10, 5H8, 8B11)
B7: F332-3E9 (antibody, mouse IgG2a, V domains shown)
VH: B2 VH with V37L, V48I, S55G, Y60C, K65T, N66T, V72I
VL: B1 VL with V3M, I95T, I108K
notes: also called F332-3E9-2; F332-3E9 (12G4)
B8: F332-4D6 (antibody, mouse IgG2a, V domains shown)
VH: B2 VH with P7S, V48I, I58T, N66R, V72A
VL: B1 VL with L52V, I95K, I108K
notes: also called F332-4D6-2; F322-4D6
B9: F332-6D7 (antibody, mouse IgG2a, V domains shown)
VH: B2 VH with K19N, I34M, E46D, V48I, S57T, I58T, N66S, F91S, T100I, T114S
VL: B1 VL with I95K, H99S, T107S, I108K
notes: also called F332-6D7-2; F332-6D7 (7G4)
B10: F332-7B7 (antibody, mouse IgG2a, V domains shown)
VH: QVQLQQPGTELGKPGTSVKLSCKASGYTFTNYWMHWVKQRPGQGLEWIGNINPNSGSTNYNQKFKSKATLTLDKSSSTAYMQFSTLTSEDSAVYYCTRDSSGQYYFDYWGQGTTLTVSS
VL: B1 VL with Y98F, I108K
notes: also called F332-7B7-2
B11: F332-8F7 (antibody, mouse IgG2a, V domains shown)
VH: B2 VH with V48I, I58T, Y80S, F91S, T100I
VL: B1 VL with A15T, E17G, K18E, H99S, I108K, E110G
notes: also called F332-8F7-3
B12: F332-5D4 (antibody, mouse IgG2b, V domains shown)
VH: QVQLQQPGAELGKPGTSVKLSCKASGYTFTSYWMHWVKQRPGQGLEWIGNINPNGGDSNYNEKFKSKATLTVDMSSSTAYMQLSTLTSEDSAVYYCTRDISGQYYFDFWGQGTSLTVFS
VL: B1 VL with V3L, K18Q, Y55F, E61K, D76Y, S82N, A86T, I95T, H99S, I108K
notes: also called F332-5D4-2; F332-5D4 (5F8)
B13: F332-5F2 (antibody, mouse IgG2b, V domains shown)
VH: B12 VH with M74K
VL: B1 VL with V3L, K18Q, Y55F, E61K, D76Y, I95T, H99N, I108K
notes: also called F332-5F2-2; F332-5F2 (6G8, 13A3)
B14: F332-7C9 (antibody, mouse IgG2a, V domains shown)
VH: QVQLQQSGPELVKPGASVRISCKASGYTFTSHYLHWVKQRPGQGFEWIGWIYPGDGNTRYNEKFKDRATLTADKSSSTAYLHLSSLTSEDSAVYFCARDAGYYFDYWGQGTTLAVSS
VL: B1 VL with P50L, L52V, I95K, H99S, I108K
notes: also called F332-7C9-2; F332-7C9 (5C7, 7D10)
B15: F332-10B6 (antibody, mouse IgG2a, V domains shown)
VH: QVQLQQPGAELGKPGTSVNLSCKASGYTFTDYWIHWVKQRPGQGLEWIGNINPNSGDTNYNENFKTKATLTVDRSSSTAYMQLSSLTSEDSAVYYCTRDISGQYYFDFWGQGTTLTVSS
VL: B1 VL with H99N, I108K
notes: also called F332-10B6-2; F332-12B5-1
B16: F332-13B4 (antibody, mouse IgG2a, V domains shown)
VH: QVQLQQSGPELVKPGASVKISCKASGYSFTNSYVHWVKQTPGQGLEWIGWIYPGSTNIKYNEKFKGKATLTADTSSSTVYMQLSSLTSEDSAVYFCARDGSYFFDYWGQGTTLTVSS
VL: B1 VL with S22T, I95K, H99I, I108K
notes: also called F332-13B4-2

Each binder was assayed against T1, human CD3 (human, UniProt P07766 23-207; P09693 23-182; P04234 22-171) (assay: flow cytometry, hybridoma supernatant on Jurkat vs CD3-negative J.RT3-T3.5).

binding, binds:
B1, B2, B3, B4

What follows are binders tested against T1, human CD3 (assay: flow cytometry dose-response on Jurkat cells).

binding, binds:
B1, B5, B6, B2, B7, B8, B9, B10, B11, B3, B4, B12, B13, B14, B15, B16

The binders below were run against T2, Cynomolgus CD3 (Cynomolgus, UniProt Q95LI5 22-198; Q95LI7 23-181; Q95LI8 22-171) (assay: flow cytometry titration on cynomolgus PBMCs or HSC-F T cell line).
T2 construct: whole, on cells; also called CD3 on Cynomolgus PBMCs; CD3 on HSC-F Cynomolgus T cell line

binding, binds:
B1, B5, B6, B2, B7, B8, B9, B10, B11, B3, B4, B12, B13, B14, B16
